In PubChem BioAssay AID504444 (National Center for Advancing Translational Sciences (NCATS), 2011):
Where “and” joins values, the source holds several entries; their conditions need not be identical. Equal entries are not always repeated. The whole screen tested about 360,000 compounds, of which about 7,500 (2.1%) were called active. Inconclusive results, whose numbers are uncertain, are shown with a selection of clear calls. The call rests on the fitted dose curve; in most records, active means well fitted inhibition curve with a large enough effect; inconclusive means small, poorly fitted or top-dose-only effect, or effect the other way; inactive means flat fitted curve, though single readings scatter. Potencies of inconclusive entries are doubtful fits and often do not repeat.

Assay: Nrf2 qHTS screen for inhibitors; further: nearly all actives have a fitted effect of over 60% in size
Details: A549 ARE-Fluc reporter, luciferase luminescence, 18-24 h; series mostly up to 46 µM
Summary of the method: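 Concentration-response testing used A549 ARE_Fluc cells at 5000 cells/well. Following an 18-24 h compound incubation, viability was read by fluorescence (Ex 405/Em 525) and luciferase output by luminescence.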
Potency means the concentration at half of the fitted maximal effect.

Q: Which Potency does the source give for `CCNC(=O)COc1ccc(-c2ccccc2)cc1` here?
A: The Potency was inconclusive: 2.31 µM [activator, full curve].

Q: With `CC1(C)CC(=O)C(C2(O)C(=O)N(Cc3ccccc3)c3ccccc32)CO1` (configuration not stated) as the compound, how does the Potency read?
A: The Potency was inconclusive: 16.4 µM [falling, partial curve, poor fit].

Q: With `c1ccc(NCC2OCc3ccccc3CO2)cc1` as the compound, how does the Potency read?
A: Its Potency is inconclusive: 18.4 µM [activator, partial curve].

Q: Which Potency does the source give for `COc1cc2c(c3oc(-c4ccccc4)cc(=O)c13)C=CC(C)(C)O2` here?
A: Its Potency is inconclusive: 16.4 µM [falling, partial curve, poor fit].

Q: Which Potency does the source give for `C/C(N)=C(/C#N)C(=O)COC(=O)c1cc(C)n(-c2ccc(F)cc2)c1C` here?
A: The Potency was inconclusive: 5.17 µM [activator, full curve] and inconclusive: 16.4 µM [activator, partial curve].

Q: Which Potency does the source give for `Cc1ccc(N2CCN(C(=O)N3CCCC3)CC2)cc1C` here?
A: Its Potency is inconclusive: 7.31 µM [falling, partial curve].

Q: For `COCCOC(=O)c1[nH]c2c(c1C)C(=O)CC(c1cc(OC)ccc1OC)C2` (configuration not stated), which Potency is on record?
A: Its Potency is “inactive”.

Q: For `O=C(O)CCCCCNCc1c(Cl)cccc1Cl`, which Potency is on record?
A: The Potency was inconclusive: 14.6 µM [activator, partial curve].

Q: Which Potency does the source give for `CCc1ccc2nc(N(CCCN(C)C)C(=O)c3ccc(S(=O)(=O)N4CCCC4)cc3)sc2c1` here?
A: The Potency was inconclusive: 20.6 µM [falling, partial curve, poor fit].

Q: Which Potency does the source give for `Cc1ccc(C)c(Cn2nnc(C(=O)NCc3ccc(Cl)cc3Cl)c2N)c1` here?
A: Its Potency is “inactive”.

Q: With `O=C(CCc1nnc2ccc(N3CCC4(CC3)OCCO4)nn12)NCc1ccc(F)cc1` as the compound, how does the Potency read?
A: The Potency was inconclusive: 0.411 µM [falling, full curve, poor fit].

Q: For `COC(=O)c1[nH]c2cc(C)ccc2c1NC(=O)CN1CCCc2ccccc21`, which Potency is on record?
A: The Potency was inconclusive: 23.1 µM [activator, single point].

Q: For `O=C(c1ccc(CS(=O)Cc2ccc(Cl)cc2)o1)N1CCN(c2ccc(F)cc2)CC1` (configuration not stated), which Potency is on record?
A: The Potency was inconclusive: 20.6 µM [falling, partial curve, poor fit].

Q: With `COc1ccccc1/C=N/NC(=O)CSc1ccc2ccccc2n1` as the compound, how does the Potency read?
A: Its Potency is inconclusive: 29.1 µM [activator, single point].

Q: With `CC(N=C1NS(=O)(=O)c2ccccc21)C(=O)NCc1ccc(F)cc1` (configuration not stated) as the compound, how does the Potency read?
A: Its Potency is “inactive”.

Q: With `Cc1cc(NC(=O)Nc2cccs2)no1` as the compound, how does the Potency read?
A: The Potency was inconclusive: 13 µM [activator, partial curve, poor fit].

Q: Which Potency does the source give for `CCc1ccc2[nH]c(C(=O)Nc3ccc4c(c3)OCO4)cc2c1` here?
A: The Potency was inconclusive: 5.8 µM [activator, full curve].

Q: For `CN(Cc1ccccc1)C(=O)c1ccc(NC(=O)Cc2cccc(NC(=O)C3CCN(C(=O)C4CCCC4)CC3)c2)cc1`, which Potency is on record?
A: Its Potency is “inactive”.

Q: With `Cc1cc(NC(=O)CN2C(=O)NC3(CCCCCC3)C2=O)ccc1Br` as the compound, how does the Potency read?
A: Its Potency is inconclusive: 23.1 µM [falling, single point].

Q: Which Potency does the source give for `CCc1ccccc1N(C)S(=O)(=O)c1ccc2[nH]cc(C(=O)O)c(=O)c2c1` here?
A: Its Potency is “inactive”.

Q: For `Cc1oc(-c2ccccc2F)nc1CS(=O)(=O)CC(=O)N1CCCCCC1`, which Potency is on record?
A: Its Potency is “inactive”.

Q: With `CC(=O)c1c(C)[nH]c(C(=O)CN2CCN(S(=O)(=O)c3ccccc3[N+](=O)[O-])CC2)c1C` as the compound, how does the Potency read?
A: Its Potency is active: 20.6 µM.

Q: Which Potency does the source give for `COc1ccc(C2=NS(=O)(=O)N(C)C(C(=O)Nc3cc(OC)c(OC)c(OC)c3)=C2)cc1` here?
A: The Potency was inconclusive: 29.1 µM [falling, single point].

Q: For `COc1ccc(CNC(=O)C(C#N)c2nc3ccccc3nc2N2CCCC2)cc1` (configuration not stated), which Potency is on record?
A: The Potency was “inactive”.

Q: With `NC(=O)CC(NC(=O)c1ccccc1)c1ccc(N2CCc3ccccc3C2)c([N+](=O)[O-])c1` (configuration not stated) as the compound, how does the Potency read?
A: The Potency was inconclusive: 29.1 µM [falling, single point].

Q: With `Cc1ccc(C)c(C(=O)CCC(=O)N2CCN(c3cccc(C(F)(F)F)c3)CC2)c1` as the compound, how does the Potency read?
A: The Potency was inconclusive: 20.6 µM [falling, single point].

Q: With `O=C(c1cc(COc2ccc(F)cc2F)on1)N1CCN(C(=O)c2ccco2)CC1` as the compound, how does the Potency read?
A: Its Potency is inconclusive: 32.6 µM [falling, partial curve, poor fit].

Q: For `O=C(NCCCCc1ccccc1)c1cccc(NC(=O)C2CCCCC2)c1`, which Potency is on record?
A: The Potency was inconclusive: 20.6 µM [falling, single point].

Q: For `Cc1[nH]c2ccccc2c1SCC(=O)Nc1nccs1`, which Potency is on record?
A: Its Potency is inconclusive: 16.4 µM [activator, partial curve].

Q: With `CC(Oc1cccc([N+](=O)[O-])c1)C(=O)NCCC1=CCCCC1` (configuration not stated) as the compound, how does the Potency read?
A: Its Potency is “inactive”.

Q: With `CCCCN(C)C(=O)C(Cc1ccccc1)NS(=O)(=O)c1ccc2c(c1)c(=O)n(C)c(=O)n2C` (configuration not stated) as the compound, how does the Potency read?
A: The Potency was inconclusive: 2.06 µM [activator, partial curve, poor fit].

Q: For `O=C(Nc1ccccc1C(=O)O)c1ccc(NC(=O)C2CC2)cc1`, which Potency is on record?
A: The Potency was inconclusive: 9.2 µM [falling, partial curve].

Q: With `O=C(COC(=O)CCCSc1nc2ccccc2[nH]1)Nc1ccc(Cl)cc1` as the compound, how does the Potency read?
A: Its Potency is inconclusive: 20.6 µM [activator, single point].

Q: For `COc1ccc(-c2cn(CCO)nc2-c2ccc(OC)cc2)cc1`, which Potency is on record?
A: Its Potency is “inactive”.

Q: With `O=C(O)C1=CC[C@@H](c2ccc(Cl)cc2)N(S(=O)(=O)c2ccc(Cl)cc2)[C@H]1c1ccc(Br)cc1` as the compound, how does the Potency read?
A: Its Potency is inconclusive: 16.4 µM [falling, single point].

Q: With `CCOC(=O)c1sc2ccccc2c1S(=O)(=O)Nc1cccc(C(F)(F)F)c1` as the compound, how does the Potency read?
A: The Potency was inconclusive: 29.1 µM [falling, single point].

Q: Which Potency does the source give for `S=C(NC1CCCCC1)N(CCc1nc2ccccc2[nH]1)C1CCCC1` here?
A: The Potency was inconclusive: 16.4 µM [falling, single point].

Q: Which Potency does the source give for `CC(=O)Nc1ccc(NC(=O)c2cc(=O)c3cc(C)c(C)cc3o2)cc1` here?
A: Its Potency is inconclusive: 4.61 µM [falling, partial curve, poor fit].

Q: With `COc1ccc(CN2CCN(Cc3nc4ccccc4s3)CC2CCO)c(C)c1C` (configuration not stated) as the compound, how does the Potency read?
A: Its Potency is inconclusive: 25.9 µM [falling, single point].

Q: Which Potency does the source give for `COc1cccc(C(=O)C2CCCN(C(=O)CCc3scnc3C)C2)c1` (configuration not stated) here?
A: Its Potency is inconclusive: 20.6 µM [falling, partial curve, poor fit].

Q: For `CCOC(=O)c1ccc(NC(=O)N2CCCCCC2)cc1`, which Potency is on record?
A: Its Potency is inconclusive: 4.11 µM [activator, partial curve].

Q: With `c1ccc(-c2c[nH]c(-c3ccccc3)c2)cc1` as the compound, how does the Potency read?
A: The Potency was inconclusive: 18.4 µM [activator, partial curve].

Q: For `C#CCOCCOCCOCCNc1nc(N2CCN(C(=O)CCCCCCCCCCNC(=O)[C@H](CO)n3cc(CCCSC)nn3)CC2)nc(N2CCN(C(=O)CCCCCCCCCCNC(=O)[C@H](CCCN=C(N)N)n3cc(C[C@@H](C)CC)nn3)CC2)n1`, which Potency is on record?
A: The Potency was inconclusive: 29.1 µM [falling, single point].

Q: With `CC(=O)Nc1ccc(C(=O)N/N=C/c2ccccc2OCc2ccccc2)cc1` as the compound, how does the Potency read?
A: The Potency was inconclusive: 20.6 µM [activator, single point].

Q: Which Potency does the source give for `O=C(C1CCCN(Cc2nc(-c3ccc(Cl)cc3)no2)C1)N1CCOCC1` (configuration not stated) here?
A: The Potency was inconclusive: 20.6 µM [falling, single point].

Q: Which Potency does the source give for `CC(=O)c1c(C)oc2ccc(N(C(=O)Oc3ccccc3)S(=O)(=O)c3ccc(C(C)(C)C)cc3)cc12` here?
A: The Potency was inconclusive: 1.84 µM [falling, full curve, poor fit].

Q: Which Potency does the source give for `COc1ccc(NC(=O)c2ccc(N3CCCC3=O)cc2)cc1Cl` here?
A: The Potency was inconclusive: 0.58 µM [falling, partial curve, poor fit].

Q: Which Potency does the source give for `COc1ccc(Nc2ncc(C(=O)N3CCN(Cc4ccccc4)CC3)c3ccccc23)cc1` here?
A: The Potency was inconclusive: 18.4 µM [falling, partial curve, poor fit].

Q: For `Cc1nnc(C)n1/N=C/c1ccc(C(=O)O)cc1`, which Potency is on record?
A: The Potency was inconclusive: 3.66 µM [falling, single point].

Q: For `CC(C)CC1NC(=O)N(CC(=O)c2ccc3c(c2)OCCO3)C1=O` (configuration not stated), which Potency is on record?
A: Its Potency is inconclusive: 6.51 µM [activator, partial curve, poor fit].

Q: Which Potency does the source give for `COc1cc(NC(=O)c2cc(Cl)c(OC)c(Cl)c2)ccc1NC(=O)c1cc2ccccc2o1` here?
A: The Potency was “inactive”.

Q: With `O=C(NN=C1c2ccccc2-c2ccccc21)c1ccccc1` as the compound, how does the Potency read?
A: Its Potency is inconclusive: 29.1 µM [falling, single point].

Q: Which Potency does the source give for `Cc1cc(C(=O)Nc2ccc(Cl)cc2)c(C)n1Cc1cccs1` here?
A: Its Potency is inconclusive: 0.58 µM [activator, full curve, poor fit].

Q: With `COc1ccccc1CNS(=O)(=O)c1ccc2c(c1)CC(C)N2C(=O)C1CC1` (configuration not stated) as the compound, how does the Potency read?
A: Its Potency is “inactive”.

Q: For `COc1ccccc1-c1csc2ncnc(Sc3nnnn3C)c12`, which Potency is on record?
A: The Potency was inconclusive: 32.6 µM [falling, single point] and inconclusive: 25.9 µM [falling, single point].

Q: With `COc1cc(C2c3c(oc4ccccc4c3=O)C(=O)N2CCN2CCOCC2)cc(OC)c1OC` (configuration not stated) as the compound, how does the Potency read?
A: Its Potency is inconclusive: 29.1 µM [activator, single point].

Q: Which Potency does the source give for `Cc1ccc(C)c(C(=O)CSc2nnnn2-c2cccnc2)c1` here?
A: The Potency was inconclusive: 25.9 µM [activator, single point].

Q: With `CSCCC(NS(=O)(=O)c1cccc(C(F)(F)F)c1)C(=O)Nc1ccccc1N1CCCC1` (configuration not stated) as the compound, how does the Potency read?
A: Its Potency is “inactive”.

Q: For `COc1ccc(C(=O)/C=C/c2ccc(O)cc2)cc1`, which Potency is on record?
A: Its Potency is “inactive”.

Q: With `COc1ccc2occ(NC(C)=O)c2c1` as the compound, how does the Potency read?
A: The Potency was inconclusive: 7.31 µM [falling, partial curve, poor fit].

Q: For `COC(=O)c1cc(OC)c(OC)cc1NC(=O)CC1CCCCC1`, which Potency is on record?
A: Its Potency is inconclusive: 13 µM [falling, partial curve].
